Results are given in words; binding and its absence hold for the method and conditions named. In cells and extracts the contact can be indirect. Some results given as binding are weak or reduced against the parent protein; the word gives no strength.
Target: 70-kDa heat shock protein (HSP70), endogenous in NRVMs (rat (endogenous in NRVMs)) (UniProt P0DMW0)
Experiment: co-IP; NRVMs infected with Ad-Vector or Ad-Asb10, with or without STUB1 siRNA; STUB1/HSP70 complex and HSP70 ubiquitination detected (Fig. 4G, H); lysates incubated with antibody and Protein A&G magnet beads overnight at 4 °C

Amino acid sequences for entries named in this document (tags omitted).
UniProt P0DMW0: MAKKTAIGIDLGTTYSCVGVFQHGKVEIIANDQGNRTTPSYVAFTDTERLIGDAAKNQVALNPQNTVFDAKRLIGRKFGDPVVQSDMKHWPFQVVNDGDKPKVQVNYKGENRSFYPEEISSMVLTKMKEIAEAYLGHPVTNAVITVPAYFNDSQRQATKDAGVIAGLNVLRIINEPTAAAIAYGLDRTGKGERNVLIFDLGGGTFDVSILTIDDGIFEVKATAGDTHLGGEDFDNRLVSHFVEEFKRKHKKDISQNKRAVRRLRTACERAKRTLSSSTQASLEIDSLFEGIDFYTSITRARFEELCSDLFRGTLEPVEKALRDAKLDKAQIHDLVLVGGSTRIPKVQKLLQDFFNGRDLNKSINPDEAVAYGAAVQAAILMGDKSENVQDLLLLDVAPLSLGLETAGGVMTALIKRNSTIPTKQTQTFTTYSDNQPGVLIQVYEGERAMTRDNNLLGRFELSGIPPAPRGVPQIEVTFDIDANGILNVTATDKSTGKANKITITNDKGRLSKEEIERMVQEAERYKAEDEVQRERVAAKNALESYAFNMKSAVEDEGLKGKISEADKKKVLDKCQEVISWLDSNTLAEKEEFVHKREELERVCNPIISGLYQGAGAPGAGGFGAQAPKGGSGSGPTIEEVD
UniProt A6HD62: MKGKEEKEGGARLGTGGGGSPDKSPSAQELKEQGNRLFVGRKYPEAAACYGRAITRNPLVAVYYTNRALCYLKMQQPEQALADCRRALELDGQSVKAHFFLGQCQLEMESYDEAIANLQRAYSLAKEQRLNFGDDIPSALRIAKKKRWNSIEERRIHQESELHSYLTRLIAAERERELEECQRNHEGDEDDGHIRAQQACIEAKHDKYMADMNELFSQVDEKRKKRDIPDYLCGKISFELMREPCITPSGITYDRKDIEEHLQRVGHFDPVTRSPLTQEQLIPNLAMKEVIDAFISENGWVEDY

- binding: binds
Substance: STIP1 homology and U-box containing protein 1 (STUB1), endogenous in NRVMs (from UniProt A6HD62 1-304) (enzyme)
